# Reference: article doi:10.1101/2022.07.18.500419
# By UniProt entry, the sequences of proteins in these tests, tags left out. Residues count along the entry.
# UniProt Q8IFM5, residues 25-526: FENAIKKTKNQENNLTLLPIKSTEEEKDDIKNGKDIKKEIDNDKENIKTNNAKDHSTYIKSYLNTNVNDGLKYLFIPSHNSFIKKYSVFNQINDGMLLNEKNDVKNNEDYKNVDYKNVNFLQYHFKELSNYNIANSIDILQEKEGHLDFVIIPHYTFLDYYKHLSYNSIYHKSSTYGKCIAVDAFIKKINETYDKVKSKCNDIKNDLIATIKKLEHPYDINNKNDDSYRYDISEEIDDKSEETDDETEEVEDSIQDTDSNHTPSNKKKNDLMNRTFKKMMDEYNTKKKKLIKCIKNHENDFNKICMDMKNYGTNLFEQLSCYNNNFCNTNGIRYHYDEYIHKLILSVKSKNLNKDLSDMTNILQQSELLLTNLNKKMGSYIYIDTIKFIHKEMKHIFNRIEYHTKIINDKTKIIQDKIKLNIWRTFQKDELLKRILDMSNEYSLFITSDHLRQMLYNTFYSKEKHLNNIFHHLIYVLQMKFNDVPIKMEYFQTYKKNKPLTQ
# These are yes or no findings as the source states them, for the method shown. Binding seen in cells or lysates may run through a third protein. Some results given as binding are weak or reduced against the parent protein; the word gives no strength.
# Molecular target: full-length recombinant RH5 protein with His-tag (reticulocyte binding protein homologue 5) (Plasmodium falciparum) (UniProt Q8IFM5)
# Experiment: pull-down
substance,measurement,value
β2-adrenergic receptor (from UniProt P07550 1-413),binding,binds
